The whole screen tested about 310,000 compounds, of which about 17,000 (5.5%) were called active. The shares of active, inactive and inconclusive entries below differ from those in the screen. Calls follow the shape of the dose curve; as a rule, active = well fitted inhibition curve with a large enough effect; inconclusive = small, poorly fitted or top-dose-only effect, or effect the other way; inactive = no such curve, though single readings can be large or run the other way. Potencies beside an inconclusive call are fits to weak or partial responses and may not hold up.
What follows are compounds tested against Nuclear receptor ROR-gamma (Mus musculus) (UniProt P51450) (assay: qHTS for inhibitors of ROR gamma transcriptional activity). Settings: Drosophila S2 Gal4-RORgamma UAS-luciferase reporter, 20 h; activity change, negative = inhibition: at 53.6 µM (top of the series).
How it was run: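 Stably transfected Drosophila Schneider cells are the test system, with ROR gamma fused to Gal4 and luciferase under UAS control; luminescence is read after 20 hr of 700 uM copper sulfate induction at ambient temperature.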
% is scaled to controls: 0 for no effect and ±100 for the full control effect; potency is read from the fitted curve at half-maximal effect.
Also: nearly all actives have a fitted effect of over 60% in size.

Sequences of proteins named here, by UniProt entry; tags and fusion partners are left off. A change or cut given only in a name is not applied to a line headed by its entry.
UniProt P51450: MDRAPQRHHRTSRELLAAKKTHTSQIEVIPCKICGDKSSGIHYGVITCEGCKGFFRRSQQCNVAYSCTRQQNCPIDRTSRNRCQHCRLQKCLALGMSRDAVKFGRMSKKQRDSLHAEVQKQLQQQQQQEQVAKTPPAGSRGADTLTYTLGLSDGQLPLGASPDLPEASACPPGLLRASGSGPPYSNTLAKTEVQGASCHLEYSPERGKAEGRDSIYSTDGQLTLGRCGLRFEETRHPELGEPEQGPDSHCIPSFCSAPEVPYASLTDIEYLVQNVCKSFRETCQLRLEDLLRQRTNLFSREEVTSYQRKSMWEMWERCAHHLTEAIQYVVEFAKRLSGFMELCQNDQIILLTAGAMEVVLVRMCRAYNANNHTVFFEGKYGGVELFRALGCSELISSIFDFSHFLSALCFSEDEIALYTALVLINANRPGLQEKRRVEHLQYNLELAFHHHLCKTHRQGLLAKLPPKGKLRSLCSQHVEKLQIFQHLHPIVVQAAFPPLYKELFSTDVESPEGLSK

Activity change, negative = inhibition, inactive:
Cc1nc2ccccc2n1CC(=O)c1ccccc1 -18.5%
COC(=O)C(CC(=O)c1ccc(Cl)cc1)c1ccc(C(C)C)cc1 (stereo unspecified) 41.4%
O=C(CNC(=O)c1ccncc1)N/N=C/c1ccc(O)cc1O -2.1%
CCOc1ccccc1C(=O)NC(C(=O)NCc1ccccc1OC)C(C)C (stereo unspecified) 15.8%
CCOC(=O)c1cc(C(=O)OCC)c(=O)[nH]c1C -28.2%
CCN1CCN(CCCN(Cc2ccco2)C(=S)Nc2ccc(Cl)c(C)c2)CC1 8.63%
Cc1ccc(C2=[N+]([O-])C3(CCCCC/C3=N\NC(N)=O)N(O)C2(C)C)o1 (stereo unspecified) 1.18%
COc1ccc(NC(=O)C(=O)c2cn(CC(=O)N3CCCC3)c3ccccc23)cc1 19.4%
O=[N+]([O-])c1ccc(NC(=S)N/C(=N/CS(=O)(=O)c2ccccc2)c2ccccc2)cc1 -34.4%
O=C(Nc1ccc(Cl)cc1)c1cc2c(cc1O)[nH]c1ccccc12 -35%
O=C1C(Cl)=C(N2CCOCC2)C(=O)N1CCc1ccccc1 33.5%
O=C(NN1CCOCC1)c1cc(-c2cccs2)nc2ccccc12 -0.32%
NS(=O)(=O)c1cc(C(=O)NC2CCSc3ccccc32)ccc1Cl (stereo unspecified) 18.7%
C#CCSc1nc2[nH]ncc2c(=O)[nH]1 43.6%
Nc1nc(CC(=O)O)cs1 -7.05%
Cc1ccc(NC(=O)CN(C)C(=O)CSc2ncc(C(F)(F)F)cc2Cl)cc1 -10.8% [at 10 µM]
FC(F)(F)c1ccccc1-c1nc(N2CCOCC2)c2ccccc2n1 2.6%
O=C(OCc1ccc2c(c1)OCO2)c1ccc(S(=O)(=O)N2CCCCC2)cc1 -31.4%
O=C(Nc1nccs1)C1CCCN1/C=C/C(=O)C(F)(F)F (stereo unspecified) 4.26%
COc1ccccc1-n1cnnc1SCC(=O)Nc1cccc(S(N)(=O)=O)c1 7.85%
CCCOc1ccc(C(O)C(CN2CCOCC2)c2ccccc2)cc1 (stereo unspecified) 6.66%

2 consecutive compounds already listed:
Activity change, negative = inhibition, inactive:
CCN1CCN(CCCN(Cc2ccco2)C(=S)Nc2ccc(Cl)c(C)c2)CC1 8.63%
Cc1ccc(C2=[N+]([O-])C3(CCCCC/C3=N\NC(N)=O)N(O)C2(C)C)o1 (stereo unspecified) 1.18%

By substructure, the entries above containing a CF3 group
Activity change, negative = inhibition, inactive:
Cc1ccc(NC(=O)CN(C)C(=O)CSc2ncc(C(F)(F)F)cc2Cl)cc1 -10.8% [at 10 µM]
FC(F)(F)c1ccccc1-c1nc(N2CCOCC2)c2ccccc2n1 2.6%
O=C(Nc1nccs1)C1CCCN1/C=C/C(=O)C(F)(F)F (stereo unspecified) 4.26%

Next part.

Potency, active:
C=CCNC(=S)N/N=C/c1ccc(-c2ccc(OC)cc2)o1 0.562 µM
Cc1onc(-c2ccccc2Cl)c1C(=O)NC(=S)Nc1ccc(C(C)(C)C)cc1 7.94 µM
COc1ccc(N2CCC(CNC(=S)Nc3c(C)cccc3C)C2)cc1 (stereo unspecified) 0.891 µM
CCCC1CCC(=NNC(=S)NCCc2ccccc2)CC1 (stereo unspecified) 5.01 µM
C=C(C)C1Cc2c(C)nn(-c3cccc4cccnc34)c2C1 (stereo unspecified) 14.1 µM
CCn1c(=NC(=O)CSC(C)=O)sc2cc(OC)ccc21 10 µM
S=C(NCc1ccco1)N/N=C/c1cccnc1 11.2 µM
O=C(NC1=NCCS1)c1ccc(Cl)c(Cl)c1 11.2 µM
C/C(CCc1ccccc1)=N\NC(=S)NCCc1ccccc1 5.01 µM
CCCCCn1c(=O)c2ccccc2n2c(=S)[nH]nc12 7.08 µM
O=S(=O)(Nc1cc(Sc2cccc3cccnc23)c(O)c2ccccc12)c1ccc(F)cc1 1.26 µM
CSCSC1=C(C#N)C(c2ccc(Cl)cc2)C(C(C)=O)=C(C)N1 (stereo unspecified) 14.1 µM
CC(=O)Nc1cccc(/C(C)=N/NC(=S)NC(C)C)c1 7.94 µM
COc1ccc(-n2c(=S)[nH]c3cc(C(=O)Nc4ccccc4OC)ccc3c2=O)c(OC)c1 1.58 µM
Cc1ccc(C2CC2c2n[nH]c(=S)n2-c2cccc(Cl)c2)cc1 (stereo unspecified) 2.51 µM
Cc1cccc(C(=O)NC(=S)N2CCN(C(=S)NC(=O)c3cccc(C)c3)CC2)c1 0.794 µM
CCOc1ccc2nc(N(CCCN(C)C)C(=O)c3ccc(S(=O)(=O)N4CCc5ccccc5C4)cc3)sc2c1 10 µM
CN1CCN(C(=S)c2cn(CCOc3ccccc3F)c3ccccc23)CC1 14.1 µM

Potency, inconclusive:
CC(C)Cc1ccc(S(=O)(=O)NCC2CCCO2)cc1 (stereo unspecified) 35.5 µM [activator, single point]
C/C(CC(=O)N(C(C)C)C(C)C)=N\NC(=O)c1ccccc1Br 22.4 µM [inhibitor, single point]
CC(C)c1ccc(/C=C/C(=O)n2nnc3ccccc32)cc1 35.5 µM [activator, single point]
CCn1c(COc2ccccc2)nnc1SCC(=O)CC(=O)Nc1ccccc1OC 35.5 µM [inhibitor, single point]
CCn1ccc(C(=O)Nc2ccc3c(c2)CCC3)n1 15.8 µM [inhibitor, single point]
COc1ccccc1C(=O)N/N=C(\C)CC(=O)Nc1ccccn1 17.8 µM [inhibitor, single point]
Cc1ccc(NC(=O)CSc2nc3ccccc3c3nc(CCc4c(C)n[nH]c4C)nn23)cc1F 25.1 µM [inhibitor, single point]
c1ccc(-c2nc(-c3ccco3)cs2)nc1 1 µM [activator, full curve, poor fit]
COc1n[nH]c(C(=O)Nc2cc(Cl)ccc2Cl)c1[N+](=O)[O-] 8.91 µM [inhibitor, partial curve]
O=C(CSc1ccc(/C=N/NC(=O)c2cccc(F)c2)o1)Nc1ccccc1 35.5 µM [inhibitor, single point]
COC(=O)C1CCN(CCCOc2ccc(CN3CCN(c4ccc([N+](=O)[O-])cc4)CC3)cc2)CC1 11.2 µM [activator, single point]
COc1ccc(S(=O)(=O)Nc2cccc(N(C)S(C)(=O)=O)c2)cc1Br 20 µM [activator, single point]
CC(C)(C)c1ccc(OCc2ccc(C(=O)N/N=C/c3ccc([N+](=O)[O-])cc3)o2)cc1 31.6 µM [inhibitor, single point]
Cc1nn(C)c(C)c1S(=O)(=O)N(CC(=O)Nc1ccccn1)c1ccc(C(C)C)cc1 35.5 µM [activator, single point]
COc1cc(C2NC(=S)NC(C)=C2C(=O)OC(C)C)ccc1OC(C)C (stereo unspecified) 35.5 µM [inhibitor, single point]
Cn1cc([C@@H]2C[C@H]3CN(Cc4cccc(Cl)c4)C(=O)[C@]34CCCN24)c(-c2ccccc2)n1 7.94 µM [inhibitor, partial curve, poor fit]
COc1ccc(CNC(=O)c2cc3c(C)nc4ccccc4c3o2)c(OC)c1 0.501 µM [inhibitor, single point]
O=C(Nc1nccs1)c1cccc(NC(=O)c2ccco2)c1 0.112 µM [activator, full curve, poor fit]
CC(=O)Nc1ccc(S(=O)(=O)N(C)Cc2ccccc2)cc1 35.5 µM [activator, single point]
O=C(NCC1CCCO1)c1ccc(OC2CCN(C(=O)C3CC3)CC2)cc1 (stereo unspecified) 0.631 µM [activator, full curve, poor fit]
CCNc1nc(-c2cc3ccccc3o2)cs1 22.4 µM [inhibitor, single point]
COc1ccc(N2CCN(CC(=O)NCc3ccccc3)CC2)cc1 11.2 µM [activator, partial curve]
O=C(CSc1cccc(C(F)(F)F)c1)NC(=O)c1ccccc1 14.1 µM [activator, single point]
CC(Oc1ccc(Cl)cc1Cl)c1ccnc2nc(N3CCOCC3)nn12 (stereo unspecified) 35.5 µM [activator, single point]
CC(=O)Nc1ccc(OC(=O)c2ccco2)cc1 5.62 µM [activator, single point]
CCS(=O)(=O)N1Cc2ccccc2CC1C(=O)Nc1cccc(S(=O)(=O)N(C)C)c1 (stereo unspecified) 15.8 µM [activator, single point]
O=C(CS(=O)(=O)c1ccccc1)Nc1nc(-c2ccccc2)cs1 1.58 µM [activator, partial curve]
COc1ccc2c(CN3CCN(S(=O)(=O)c4cccs4)CC3)cc(=O)oc2c1 14.1 µM [activator, single point]
O=C(Nc1cccc([N+](=O)[O-])c1)c1cc(S(=O)(=O)N2CCOCC2)cs1 31.6 µM [activator, single point]
CCc1ccccc1NC(=O)CSc1nc2n[nH]c(C)c2c(=N)n1-c1ccc(OC)cc1 0.251 µM [activator, full curve]
Cc1ccc(-n2cnc3scc(-c4cccs4)c3c2=O)cc1 12.6 µM [activator, single point]
Cc1cc(C)c(S(=O)(=O)NCCn2ccc3ccccc32)c(C)c1 1.41 µM [inhibitor, partial curve]
C=CCOC(=O)C1=C(C)NC(=S)C(C#N)(CC=C)C1c1ccccc1Cl (stereo unspecified) 15.8 µM [inhibitor, single point]
Cc1ccc(S(=O)(=O)N2CCCC2C(=O)O)s1 (stereo unspecified) 5.62 µM [activator, single point]
CCc1nnc(NC(=O)CSc2nnc(-c3ccc(NS(=O)(=O)c4ccccc4)cc3)o2)s1 17.8 µM [inhibitor, single point]
CCOc1ccccc1NC(=O)c1cnccn1 0.447 µM [inhibitor, single point]
C=CCn1c(-c2cccc(S(=O)(=O)N(CC)CC)c2)n[nH]c1=S 10 µM [inhibitor, partial curve]
